A short description of the data set: Organoleptic testing (taste and smell) of stabilized salmon oil. The settings on record: after 17 months, salmon oil containing the additive. On the procedure:
With basis in salmon oil as a nutritional supplement, organoleptic characteristics (determination of the quality of the oil by taste and smell) are also of importance. Standardized methods for organoleptic testing were utilized: one drop of salmon oil was placed on the arm and applied in a thin layer by means of a piece of glass. After one minute the quality of the oil could be determined by taste and smell. Five different individuals were tested, once per week, to obtain independent results. […] Both smell and taste was satisfactory at this point in time, and better for fullerene, witch kept well for 600 days, than for rosemary, witch only kept for 300 days.

Take `c12c3c4c5c1c1c6c7c2c2c8c3c3c9c4c4c%10c5c5c1c1c6c6c%11c7c2c2c7c8c3c3c8c9c4c4c9c%10c5c5c1c1c6c6c%11c2c2c7c3c3c8c4c4c9c5c1c1c6c2c3c41` [fullerene C60]: the “smell and taste of the oil” value is recorded as “satisfactory”; the “user applicability of the oil” value is listed as “good user applicability”.

(Values after patent publication US20080193619A1, “Use of Fullerence C60 as an Oil Stabilizer” (UNI PHARMA HOLDING AS, priority 2005, published 2008).)
